# Literature values in patent publication US9259467B2, “Mammalian receptors as targets for antibody and active vaccination therapy against mold infections” (Los Angeles Biomedical Research Institute at Harbor-UCLA …, priority 2009, dated 2016).
# For at least one compound, name, drawing or mass did not settle the structure.
# Tested on: mucormycosis
# Conditions: Ibrahim et al., J Clin Invest. 2007; cited from earlier work
smiles,measurement,value
O=C(O)c1ccc(-n2nc(-c3ccccc3O)nc2-c2ccccc2O)cc1 [deferasirox],Efficacy in treating experimental hematogenously disseminated mucormycosis,effective
